The record followed here is PMC3040602.

Chains of the proteins cited; added tags and fusions are not shown. Lines headed by an entry give the natural chain unless they say otherwise; changes in a name come on top. Residues count along the entry.
UniProt Q15788, residues 595-780: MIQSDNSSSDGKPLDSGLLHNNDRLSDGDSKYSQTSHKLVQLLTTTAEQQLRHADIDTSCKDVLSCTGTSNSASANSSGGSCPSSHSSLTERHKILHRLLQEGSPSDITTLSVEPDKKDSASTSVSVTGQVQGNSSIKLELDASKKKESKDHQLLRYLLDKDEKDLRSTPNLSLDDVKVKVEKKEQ
UniProt P10828: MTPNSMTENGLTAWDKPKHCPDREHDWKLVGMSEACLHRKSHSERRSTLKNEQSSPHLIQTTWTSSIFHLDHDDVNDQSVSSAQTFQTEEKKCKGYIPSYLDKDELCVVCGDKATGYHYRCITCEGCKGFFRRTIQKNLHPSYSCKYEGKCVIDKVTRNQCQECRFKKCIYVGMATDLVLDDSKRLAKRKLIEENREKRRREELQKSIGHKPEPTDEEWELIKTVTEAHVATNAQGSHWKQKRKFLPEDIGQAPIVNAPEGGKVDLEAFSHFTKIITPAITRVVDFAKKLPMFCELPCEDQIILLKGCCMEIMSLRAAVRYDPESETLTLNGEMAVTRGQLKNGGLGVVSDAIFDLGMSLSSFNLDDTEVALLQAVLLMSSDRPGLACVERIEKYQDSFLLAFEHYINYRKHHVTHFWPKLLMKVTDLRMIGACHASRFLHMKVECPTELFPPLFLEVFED

No constants are given. Whether binding was seen depends on the method and setting. For part of these data: Binding can be weak; no strength is given.

The target of assay [1] is Gal4–DNA binding domain (DBD)-fused steroid receptor coactivator-1–nuclear binding domain-1 (SRC-1–NBD-1; aa 595–780) (UniProt Q15788). In words: two-hybrid; mammalian two-hybrid in CV-1 cells, Gal4-DBD fusion and VP16 fusion with 5× UAS-TK-LUC reporter; with T3 (10^-7 M), with or without BDE209.
In assay [2] the target is T1, Gal4–N-CoR (nuclear receptor corepressor; aa 1579–2454) (UniProt Q60974).
T1 sequence: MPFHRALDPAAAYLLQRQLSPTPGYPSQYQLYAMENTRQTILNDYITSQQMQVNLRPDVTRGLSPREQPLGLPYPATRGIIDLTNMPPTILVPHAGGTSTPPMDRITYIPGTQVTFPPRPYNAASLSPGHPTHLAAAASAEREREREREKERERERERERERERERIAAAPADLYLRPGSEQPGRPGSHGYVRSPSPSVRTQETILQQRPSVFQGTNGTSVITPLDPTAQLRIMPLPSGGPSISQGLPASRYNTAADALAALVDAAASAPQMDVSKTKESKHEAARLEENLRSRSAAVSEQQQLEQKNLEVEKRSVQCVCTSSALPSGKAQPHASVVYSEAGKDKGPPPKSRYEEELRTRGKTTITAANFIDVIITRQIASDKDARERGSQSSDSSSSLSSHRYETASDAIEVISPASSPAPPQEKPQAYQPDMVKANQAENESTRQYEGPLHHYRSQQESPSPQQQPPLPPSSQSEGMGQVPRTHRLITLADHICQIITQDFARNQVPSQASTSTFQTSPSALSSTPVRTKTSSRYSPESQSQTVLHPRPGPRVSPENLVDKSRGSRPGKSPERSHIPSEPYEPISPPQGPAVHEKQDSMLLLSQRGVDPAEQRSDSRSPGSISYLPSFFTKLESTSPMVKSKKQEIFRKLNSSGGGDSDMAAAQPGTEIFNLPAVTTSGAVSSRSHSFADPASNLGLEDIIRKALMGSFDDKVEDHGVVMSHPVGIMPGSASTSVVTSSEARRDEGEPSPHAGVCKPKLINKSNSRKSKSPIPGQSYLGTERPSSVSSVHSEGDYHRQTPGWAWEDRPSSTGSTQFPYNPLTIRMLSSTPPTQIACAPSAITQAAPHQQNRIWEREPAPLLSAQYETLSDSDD
The description is as above.

In assay [3] the target is T1, Gal4–N-CoR (nuclear receptor corepressor; aa 1579–2454). In words: two-hybrid; mammalian two-hybrid in CV-1 cells, Gal4-DBD fusion and VP16 fusion with 5× UAS-TK-LUC reporter; without T3, with or without BDE209.

Take “VP16-TRβ1–ligand binding domain (LBD) (from UniProt P10828) (domain or fragment)”: the binding entry is reported as “binds” in assay [1], “no binding (only with T3 (10^-7 M))” in assay [2] and “binds” in assay [3].
